In the supplement of paper PMC4604168 (melanoma cell lines):
The other results are listed elsewhere or left out. Many values rest on one well or one pass, so single values are uncertain.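 The apoptosis fraction was the count of cleaved-PARP antibody-stained nuclei relative to all DNA-stained nuclei, imaged in 1,536-well plates. Screening doses were set so most cells survived, and baseline and induced cleaved-PARP levels vary greatly across cell lines.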

Experiments:
Experiment in all cases: cleaved PARP positive nuclei fraction relative to DMSO control; melanoma cells; higher = more apoptosis
Conditions in all cases: library dose: low library concentration; 72 h
CBRC034 = test system: CBRC034 (line from a melanoma biopsy)
COLO792 = test system: COLO792
COLO800 = test system: COLO800
COLO829 = test system: COLO829
G361 = test system: G361
IPC-298 = test system: IPC-298
IST-MEL1 = test system: IST-MEL1
LB2518-MEL = test system: LB2518-MEL
LOXIMVI = test system: LOXIMVI
MEL-HO = test system: MEL-HO

Row | Structure (SMILES) | cleaved PARP positive nuclei fraction (CBRC034) | cleaved PARP positive nuclei fraction (COLO792) | cleaved PARP positive nuclei fraction (COLO800) | cleaved PARP positive nuclei fraction (COLO829) | cleaved PARP positive nuclei fraction (G361) | cleaved PARP positive nuclei fraction (IPC-298) | cleaved PARP positive nuclei fraction (IST-MEL1) | cleaved PARP positive nuclei fraction (LB2518-MEL) | cleaved PARP positive nuclei fraction (LOXIMVI) | cleaved PARP positive nuclei fraction (MEL-HO)
1 | Cn1cc(C2=C(c3cn(C4CCN(Cc5ccccn5)CC4)c4ccccc34)C(=O)NC2=O)c2ccccc21 [Enzastaurin] + OCc1c[nH]c2ccccc12 [Indole-3-carbinol] (first compound 0.8 µM, partner dose 0.8 µM) | 84.8% | 57.7% | 171% | 133% | 121% | 117% | 114% | 132% | 65.5% | 24.6%
2 | C[C@]12O[C@H](C[C@]1(O)CO)n1c3ccccc3c3c4c(c5c6ccccc6n2c5c31)CNC4=O [Lestaurtinib] + CNC(=O)c1cc(Oc2ccc(NC(=O)Nc3ccc(Cl)c(C(F)(F)F)c3)cc2)ccn1 [sorafenib] (first compound 0.004 µM, partner dose 0.4 µM) | 72.5% | 14.6% | 86.6% | 56.7% | 75.3% | 63.5% | 32.2% | 228% | 63.8% | 195%
3 | OCc1c[nH]c2ccccc12 [Indole-3-carbinol] + C[As](C)SC[C@H](NC(=O)CC[C@H](N)C(=O)O)C(=O)NCC(=O)O [Darinaparsin] (first compound 0.8 µM, partner dose 0.4 µM) | 31% | 72.3% | 75.2% | 120% | 220% | 181% | 78.2% | 111% | 43.5% | 45.9%
4 | C[C@]12O[C@H](C[C@]1(O)CO)n1c3ccccc3c3c4c(c5c6ccccc6n2c5c31)CNC4=O [Lestaurtinib] + Cn1c(=O)n(-c2ccc(C(C)(C)C#N)cc2)c2c3cc(-c4cnc5ccccc5c4)ccc3ncc21 [NVP-BEZ235] (first compound 0.004 µM, partner dose 0.004 µM) | 61.2% | 114% | 140% | 109% | 92.2% | 130% | 62.1% | 52.1% | 125% | 52.1%
5 | CC(=O)c1c(C)c2cnc(Nc3ccc(N4CCNCC4)cn3)nc2n(C2CCCC2)c1=O [palbociclib] + C[As](C)SC[C@H](NC(=O)CC[C@H](N)C(=O)O)C(=O)NCC(=O)O [Darinaparsin] (first compound 0.04 µM, partner dose 0.4 µM) | 68.5% | 77.6% | 49.5% | 105% | 57.6% | 103% | 81.6% | 72.2% | 109% | 102%
6 | CC[C@]1(O)C[C@H]2CN(CCc3c([nH]c4ccccc34)[C@@](C(=O)OC)(c3cc4c(cc3OC)N(C=O)[C@H]3[C@@](O)(C(=O)OC)[C@H](OC(C)=O)[C@]5(CC)C=CCN6CC[C@]43[C@@H]65)C2)C1 [vincristine] + C[C@]12O[C@H](C[C@]1(O)CO)n1c3ccccc3c3c4c(c5c6ccccc6n2c5c31)CNC4=O [Lestaurtinib] (first compound 0.0001 µM, partner dose 0.004 µM) | 93.1% | 177% | 115% | 109% | 149% | 43.7% | 258% | 113% | 293% | 53.2%
7 | Cn1cc(C2=C(c3cn(C4CCN(Cc5ccccn5)CC4)c4ccccc34)C(=O)NC2=O)c2ccccc21 [Enzastaurin] + O=C(O)[C@@H]1[O][Sb](=[O])([O][Sb]2(=[O])[O][C@H]([C@H](O)CO)[C@H](O)[C@H](C(=O)O)[O]2)[O][C@H]([C@H](O)CO)[C@@H]1O [stibogluconate] (first compound 0.8 µM, partner dose 2 µM) | 66.1% | 31.6% | 39.5% | 99.8% | 144% | 76% | 68.6% | 113% | 70.6% | 74.4%
8 | Cn1cc(C2=C(c3cn(C4CCN(Cc5ccccn5)CC4)c4ccccc34)C(=O)NC2=O)c2ccccc21 [Enzastaurin] + Nc1nc(F)nc2c1ncn2[C@@H]1O[C@H](CO)[C@@H](O)[C@@H]1O [fludarabine] (first compound 0.8 µM, partner dose 0.2 µM) | 64.8% | 48% | 93.8% | 29.6% | 31.2% | 42.9% | 68.1% | 227% | 87.4% | 42.6%
9 | Cn1cc(C2=C(c3cn(C4CCN(Cc5ccccn5)CC4)c4ccccc34)C(=O)NC2=O)c2ccccc21 [Enzastaurin] + CN1CCN(c2ccc3nc(-c4c(N)c5c(F)cccc5[nH]c4=O)[nH]c3c2)CC1 [Dovitinib] (first compound 0.8 µM, partner dose 0.1 µM) | 83.3% | 61.1% | 95.1% | 76.7% | 99.4% | 118% | 157% | 57.2% | 173% | 113%
10 | O=C(/C=C/c1cccnc1)NCCCCC1CCN(C(=O)c2ccccc2)CC1 + C[As](C)SC[C@H](NC(=O)CC[C@H](N)C(=O)O)C(=O)NCC(=O)O [Darinaparsin] (first compound 0.01 µM, partner dose 0.4 µM) | 1460% | 642% | 290% | 226% | 7300% | 392% | 95.4% | 266% | 38.9% | 932%
11 | N.N.[Cl][Pt][Cl] [cisplatin] + C[C@@H](Oc1cc(-c2cnn(C3CCNCC3)c2)cnc1N)c1c(Cl)ccc(F)c1Cl [Crizotinib] (first compound 1.6 µM, partner dose 0.2 µM) | 47.7% | 93.9% | 106% | 49.5% | 158% | 160% | 176% | 104% | 140% | 96%
12 | N.N.[Cl][Pt][Cl] [cisplatin] + Nc1ccn([C@@H]2O[C@H](CO)[C@@H](O)C2(F)F)c(=O)n1 [gemcitabine] (first compound 1.6 µM, partner dose 0.0004 µM) | 63.1% | 138% | 105% | 51.3% | 92.5% | 81.2% | 193% | 90.7% | 16.6% | 106%
13 | C[As](C)SC[C@H](NC(=O)CC[C@H](N)C(=O)O)C(=O)NCC(=O)O [Darinaparsin] + O=S(=O)(c1ccccc1)N(CC(F)(F)F)c1ccc(C(O)(C(F)(F)F)C(F)(F)F)cc1 [T0901317] (first compound 0.4 µM, partner dose 1.4 µM) | 84.3% | 40.8% | 168% | 80.3% | 50% | 129% | 141% | 71.7% | 58.9% | –
14 | Cc1nc(Nc2ncc(C(=O)Nc3c(C)cccc3Cl)s2)cc(N2CCN(CCO)CC2)n1 [dasatanib] + Cc1cc(SCc2sc(-c3ccc(C(F)(F)F)c(F)c3)nc2C)ccc1OCC(=O)O [GW0742] (first compound 0.004 µM, partner dose 2 µM) | 137% | 71.4% | 63% | 101% | 170% | 82.1% | 149% | 149% | 184% | –
15 | Cn1cc(C2=C(c3cn(C4CCN(Cc5ccccn5)CC4)c4ccccc34)C(=O)NC2=O)c2ccccc21 [Enzastaurin] + CS(=O)(=O)CCNCc1ccc(-c2ccc3ncnc(Nc4ccc(OCc5cccc(F)c5)c(Cl)c4)c3c2)o1 [lapatinib] (first compound 0.8 µM, partner dose 0.8 µM) | 152% | 132% | 139% | 73% | 39.4% | 61.7% | 181% | 108% | 182% | 163%
16 | NC(=O)c1ccc(N(C(N)=O)c2c(F)cccc2F)nc1-c1ccc(F)cc1F + C[C@]12O[C@H](C[C@]1(O)CO)n1c3ccccc3c3c4c(c5c6ccccc6n2c5c31)CNC4=O [Lestaurtinib] (first compound 0.4 µM, partner dose 0.004 µM) | 27.7% | 175% | 78.6% | 36.3% | 166% | 205% | 66.3% | 249% | 45.8% | 121%
17 | C[C@]12O[C@H](C[C@]1(O)CO)n1c3ccccc3c3c4c(c5c6ccccc6n2c5c31)CNC4=O [Lestaurtinib] + CCN(CC)CCNC(=O)c1c(C)[nH]c(/C=C2\C(=O)Nc3ccc(F)cc32)c1C [sunitinib] (first compound 0.004 µM, partner dose 0.4 µM) | 34.8% | 153% | 181% | 89.4% | 87.9% | 287% | 126% | 60.3% | 135% | 40%
18 | Clc1ccc(Nc2nnc(Cc3ccncc3)c3ccccc23)cc1 [vatalanib] + C[As](C)SC[C@H](NC(=O)CC[C@H](N)C(=O)O)C(=O)NCC(=O)O [Darinaparsin] (first compound 2 µM, partner dose 0.4 µM) | 77.7% | 95.3% | 105% | 146% | 83.8% | 20.2% | 123% | 145% | 53.9% | 142%
19 | C[C@]12O[C@H](C[C@]1(O)CO)n1c3ccccc3c3c4c(c5c6ccccc6n2c5c31)CNC4=O [Lestaurtinib] + NC1(c2ccc(-c3nc4ccn5c(=O)[nH]nc5c4cc3-c3ccccc3)cc2)CCC1 [MK2206] (first compound 0.004 µM, partner dose 0.4 µM) | 106% | 200% | 198% | 62.4% | 43.7% | 129% | 150% | 141% | 213% | 292%

Single records (already shown). Values in the order: cleaved PARP positive nuclei fraction (CBRC034) | cleaved PARP positive nuclei fraction (COLO792) | cleaved PARP positive nuclei fraction (COLO800) | cleaved PARP positive nuclei fraction (COLO829) | cleaved PARP positive nuclei fraction (G361) | cleaved PARP positive nuclei fraction (IPC-298) | cleaved PARP positive nuclei fraction (IST-MEL1) | cleaved PARP positive nuclei fraction (LB2518-MEL) | cleaved PARP positive nuclei fraction (LOXIMVI) | cleaved PARP positive nuclei fraction (MEL-HO)
Cn1cc(C2=C(c3cn(C4CCN(Cc5ccccn5)CC4)c4ccccc34)C(=O)NC2=O)c2ccccc21 [Enzastaurin] + Nc1nc(F)nc2c1ncn2[C@@H]1O[C@H](CO)[C@@H](O)[C@@H]1O [fludarabine] (first compound 0.8 µM, partner dose 0.2 µM) is entered as 64.8% | 48% | 93.8% | 29.6% | 31.2% | 42.9% | 68.1% | 227% | 87.4% | 42.6%
C[C@]12O[C@H](C[C@]1(O)CO)n1c3ccccc3c3c4c(c5c6ccccc6n2c5c31)CNC4=O [Lestaurtinib] + NC1(c2ccc(-c3nc4ccn5c(=O)[nH]nc5c4cc3-c3ccccc3)cc2)CCC1 [MK2206] (first compound 0.004 µM, partner dose 0.4 µM) is entered as 106% | 200% | 198% | 62.4% | 43.7% | 129% | 150% | 141% | 213% | 292%
